The list shows a part of the results, in another mix than the full data. At the low end of the ranking the order means little.

The chains behind the UniProt entries cited, without tags or fusion partners. Where a name states a change or a piece, a line headed by the entry shows the natural chain unless it says otherwise.
UniProt O43186: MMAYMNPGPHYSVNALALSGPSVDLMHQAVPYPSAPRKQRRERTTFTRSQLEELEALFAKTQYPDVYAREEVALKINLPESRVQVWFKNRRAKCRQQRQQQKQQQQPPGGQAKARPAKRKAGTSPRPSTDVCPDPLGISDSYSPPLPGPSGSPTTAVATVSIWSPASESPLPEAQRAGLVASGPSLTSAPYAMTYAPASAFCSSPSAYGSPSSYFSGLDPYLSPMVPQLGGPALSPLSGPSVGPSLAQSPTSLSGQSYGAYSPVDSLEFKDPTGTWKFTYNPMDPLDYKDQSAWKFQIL

This experiment has as its target CRX (UniProt O43186). Briefly: DAPPL (digital affinity profiling via proximity ligation, sequencing). Conditions: 10 mM Tris-HCl pH 7.5, 50 mM NaCl, 1 mM DTT, 4% glycerol, room temperature, 30 min; GST-TFs on glutathione beads, 16-mer random dsDNA library, 0.1% …; high values mean tight binding; double strand, one strand shown; scale: fold enrichment (6-mer frequency, TF over GST control).
For the sequence GTCTCG, the binding signal is 1.06.

Take TGAATG: the binding signal is 0.999.

TTAAAT: the binding signal is 2.92.

Take TAACTT: the binding signal came to 1.56.

Consider CATTCG, for which the binding signal came to 1.14.

For AACCTG, the binding signal was 1.1.

The sequence CAAACA came in with a binding signal of 0.854.

With GAAACT, the binding signal was 0.984.

ACTGCC gave a binding signal of 0.974.

Sequence CACCCT yielded a binding signal of 0.98.

As to AGTACA, the binding signal worked out at 0.847.

In the case of CATGCA, the binding signal is 0.795.

CTGACC came in with a binding signal of 1.01.

Regarding GGTCTA, the binding signal amounted to 1.01.

For CGCGTT, the binding signal amounted to 0.874.

As to GGCACT, the binding signal was found to be 0.91.

CCCCTA returned a binding signal of 1.15.

Sequence ACTCTG displayed a binding signal of 1.12.

With CATCAT, the binding signal was found to be 0.955.

As for GCAACC, the binding signal worked out at 0.689.

On to TTCGAG, for which the binding signal stood at 1.96.

Sequence ACAACA yielded a binding signal of 0.974.

In turn, TCCGCA showed a binding signal of 1.35.

On to AGTACT, for which the binding signal is 1.02.

Turning to CACCCG, the binding signal turned out to be 0.832.

CTGTTG gave a binding signal of 0.937.

CCCGGC had a binding signal of 0.875.

In turn, TGTTGT registered a binding signal of 0.938.

GTCCGG came in with a binding signal of 0.423.

On to CCGGTC, for which the binding signal came out at 0.526.

As for TTCGGT, the binding signal is 1.

The sequence ACCTGA had a binding signal of 0.96.

CCTCCT gave a binding signal of 1.32.

Sequence CCGACG registered a binding signal of 0.926.

In the case of GGTTCC, the binding signal was 0.729.

Sequence AAGGGC yielded a binding signal of 0.952.

The sequence GCACTC gave a binding signal of 0.978.

Regarding CGACTG, the binding signal amounted to 0.825.

TACAAC yielded a binding signal of 0.986.

The record behind these values is article PMC7862700.
